# Results are given in words; binding and its absence hold for the method and conditions named. Some entries that bind do so weakly or less than the wild type.
# T1: recombinant human B7-H3 (human) (UniProt Q5ZPR3)
# T1 sequence (looked up): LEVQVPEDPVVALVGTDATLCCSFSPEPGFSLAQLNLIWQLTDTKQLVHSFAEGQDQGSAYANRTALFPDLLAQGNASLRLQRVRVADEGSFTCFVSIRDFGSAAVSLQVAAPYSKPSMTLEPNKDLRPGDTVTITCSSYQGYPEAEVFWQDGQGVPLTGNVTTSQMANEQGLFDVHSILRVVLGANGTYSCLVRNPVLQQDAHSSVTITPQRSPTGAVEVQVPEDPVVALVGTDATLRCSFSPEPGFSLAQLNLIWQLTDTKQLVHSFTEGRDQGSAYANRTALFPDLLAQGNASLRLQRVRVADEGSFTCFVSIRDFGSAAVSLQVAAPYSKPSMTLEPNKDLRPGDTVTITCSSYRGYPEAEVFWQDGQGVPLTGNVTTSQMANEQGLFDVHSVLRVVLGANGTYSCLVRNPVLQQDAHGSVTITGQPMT
# Target: T1, recombinant human B7-H3 (human)
# Test: B7-H3 binding ELISA, accelerated storage at 25 +/- 2 C through 6 months
binder,measurement,value
"enoblituzumab (antibody, human IgG1, kappa, V domains shown) VH: EVQLVESGGGLVQPGGSLRLSCAASGFTFSSFGMHWVRQAPGKGLEWVAYISSDSSAIYYADTVKGRFTISRDNAKNSLYLQMNSLRDEDTAVYYCGRGRENIYYGSRLDYWGQGTTVTVSS VL: DIQLTQSPSFLSASVGDRVTITCKASQNVDTNVAWYQQKPGKAPKALIYSASYRYSGVPSRFSGSGSGTDFTLTISSLQPEDFATYYCQQYNNYPFTFGQGTKLEIKR",binding,binds
